doi:10.1101/410092
Positions count from the first letter of the chain named. Numbers in names are those of the source. Read-outs that look alike come from different tables or passages of the source. No constants are given. Whether binding was seen depends on the method and setting. In cells and extracts the contact can be indirect. Some entries that bind do so weakly or less than the wild type. Where a sequence is shown, tags or fusion partners need not be part of it. One block for each binder: values may come before it.

Columns and labels:
Assay in all cases: co-IP
[1] = biological target: T1, Unc93b1^SKN (SKN to AAA at residues 282-284), 3xFLAG-tagged (mouse) (UniProt Q8VCW4)
T1 sequence: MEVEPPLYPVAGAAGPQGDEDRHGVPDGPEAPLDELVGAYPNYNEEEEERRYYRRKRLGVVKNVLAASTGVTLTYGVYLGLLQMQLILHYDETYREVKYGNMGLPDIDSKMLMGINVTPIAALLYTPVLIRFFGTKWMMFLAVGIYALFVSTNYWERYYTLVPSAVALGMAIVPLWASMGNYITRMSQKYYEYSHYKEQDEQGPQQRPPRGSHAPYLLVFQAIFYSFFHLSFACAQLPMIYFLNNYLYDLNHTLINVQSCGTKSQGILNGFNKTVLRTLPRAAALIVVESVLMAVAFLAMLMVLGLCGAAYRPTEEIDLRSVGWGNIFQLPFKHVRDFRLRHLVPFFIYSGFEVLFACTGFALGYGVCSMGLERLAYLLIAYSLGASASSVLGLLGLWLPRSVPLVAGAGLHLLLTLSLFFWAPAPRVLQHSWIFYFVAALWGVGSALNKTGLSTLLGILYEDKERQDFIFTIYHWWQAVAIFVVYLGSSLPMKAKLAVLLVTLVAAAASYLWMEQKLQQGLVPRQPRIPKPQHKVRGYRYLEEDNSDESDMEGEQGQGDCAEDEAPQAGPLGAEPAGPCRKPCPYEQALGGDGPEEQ

[2] = biological target: T2, Unc93b1 wildtype, 3xFLAG-tagged (mouse) (UniProt Q8VCW4)
T2 sequence: T1 sequence with A282S, A283K, A284N

[3] = biological target: T3, Unc93b1^S282A, 3xFLAG-tagged (mouse) (UniProt Q8VCW4)
T3 sequence: T1 sequence with A283K, A284N

[4] = biological target: T4, TLR9, HA-tagged (UniProt Q9EQU3)
T4 sequence: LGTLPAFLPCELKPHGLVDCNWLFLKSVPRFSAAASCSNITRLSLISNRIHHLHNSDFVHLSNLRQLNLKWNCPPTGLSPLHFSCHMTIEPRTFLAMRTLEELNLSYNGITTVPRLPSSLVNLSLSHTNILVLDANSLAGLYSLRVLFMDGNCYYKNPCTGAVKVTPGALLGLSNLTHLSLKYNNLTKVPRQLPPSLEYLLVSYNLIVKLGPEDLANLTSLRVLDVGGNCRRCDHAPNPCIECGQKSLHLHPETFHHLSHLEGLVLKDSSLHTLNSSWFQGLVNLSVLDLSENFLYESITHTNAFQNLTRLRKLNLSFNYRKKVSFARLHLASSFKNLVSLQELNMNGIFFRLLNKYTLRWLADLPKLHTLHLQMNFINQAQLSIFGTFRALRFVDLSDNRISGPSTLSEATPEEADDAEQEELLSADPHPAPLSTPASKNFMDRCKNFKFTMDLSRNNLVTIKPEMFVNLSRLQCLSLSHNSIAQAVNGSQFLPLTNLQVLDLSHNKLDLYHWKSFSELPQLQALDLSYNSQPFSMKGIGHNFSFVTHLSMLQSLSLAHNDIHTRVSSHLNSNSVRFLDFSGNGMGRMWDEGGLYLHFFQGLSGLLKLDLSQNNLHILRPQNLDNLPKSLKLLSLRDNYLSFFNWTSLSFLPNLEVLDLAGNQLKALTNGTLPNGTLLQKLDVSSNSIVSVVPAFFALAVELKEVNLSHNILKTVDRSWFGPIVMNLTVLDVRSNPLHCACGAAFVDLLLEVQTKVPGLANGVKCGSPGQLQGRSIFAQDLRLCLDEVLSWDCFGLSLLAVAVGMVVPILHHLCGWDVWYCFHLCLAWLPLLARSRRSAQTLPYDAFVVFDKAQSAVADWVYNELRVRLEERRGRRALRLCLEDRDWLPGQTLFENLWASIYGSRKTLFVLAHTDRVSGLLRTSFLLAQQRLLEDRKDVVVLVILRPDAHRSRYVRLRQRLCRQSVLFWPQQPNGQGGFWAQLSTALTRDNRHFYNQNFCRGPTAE

[5] = biological target: T4, TLR9, HA-tagged; remark: listed apart in the source
[6] = biological target: T4, TLR9, HA-tagged; remark: listed apart in the source
[7] = biological target: T4, TLR9, HA-tagged; remark: listed apart in the source

binding [1]: binds | binding [2]: binds | binding [3]: binds
B1: TLR7, HA-tagged (receptor, UniProt P58681 27-1050)
chain: FRWFPKTLPCEVKVNIPEAHVIVDCTDKHLTEIPEGIPTNTTNLTLTINHIPSISPDSFRRLNHLEEIDLRCNCVPVLLGSKANVCTKRLQIRPGSFSGLSDLKALYLDGNQLLEIPQDLPSSLHLLSLEANNIFSITKENLTELVNIETLYLGQNCYYRNPCNVSYSIEKDAFLVMRNLKVLSLKDNNVTAVPTTLPPNLLELYLYNNIIKKIQENDFNNLNELQVLDLSGNCPRCYNVPYPCTPCENNSPLQIHDNAFNSLTELKVLRLHSNSLQHVPPTWFKNMRNLQELDLSQNYLAREIEEAKFLHFLPNLVELDFSFNYELQVYHASITLPHSLSSLENLKILRVKGYVFKELKNSSLSVLHKLPRLEVLDLGTNFIKIADLNIFKHFENLKLIDLSVNKISPSEESREVGFCPNAQTSVDRHGPQVLEALHYFRYDEYARSCRFKNKEPPSFLPLNADCHIYGQTLDLSRNNIFFIKPSDFQHLSFLKCLNLSGNTIGQTLNGSELWPLRELRYLDFSNNRLDLLYSTAFEELQSLEVLDLSSNSHYFQAEGITHMLNFTKKLRLLDKLMMNDNDISTSASRTMESDSLRILEFRGNHLDVLWRAGDNRYLDFFKNLFNLEVLDISRNSLNSLPPEVFEGMPPNLKNLSLAKNGLKSFFWDRLQLLKHLEILDLSHNQLTKVPERLANCSKSLTTLILKHNQIRQLTKYFLEDALQLRYLDISSNKIQVIQKTSFPENVLNNLEMLVLHHNRFLCNCDAVWFVWWVNHTDVTIPYLATDVTCVGPGAHKGQSVISLDLYTCELDLTNLILFSVSISSVLFLMVVMTTSHLFFWDMWYIYYFWKAKIKGYQHLQSMESCYDAFIVYDTKNSAVTEWVLQELVAKLEDPREKHFNLCLEERDWLPGQPVLENLSQSIQLSKKTVFVMTQKYAKTESFKMAFYLSHQRLLDEKVDVIILIFLEKPLQKSKFLQLRKRLCRSSVLEWPANPQAHPYFWQCLKNALTTDNHVAYSQMFKETV

binding [4]: binds | binding [5]: binds | binding [6]: binds | binding [7]: binds
B2: Unc93b1^S282A, 3xFLAG-tagged (protein, UniProt Q8VCW4 1-598)
chain: T1 sequence with A283K, A284N
